{"source": "PubChem BioAssay AID2417", "about": "(National Center for Advancing Translational Sciences (NCATS), 2010)", "note": "Among all 140,000 compounds or so, about 4,300 (3.1%) were called active. This list was built around the results that the source calls inconclusive (neither active nor inactive); the mix of calls is not that of the screen.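 Rule for the calls: active = readout at or below -70, meaning at least 70% loss of cells showing the perinucleolar compartment, a nuclear body marking cancer cells; inconclusive = readout between -30 and a set limit; inactive = the rest.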", "data": [{"experiment": "High Content Assay for Compounds that inhibit the Assembly of the Perinucleolar Compartment;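 note: plate controls were DMSO wells for no effect and camptothecin positive control wells for full effect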", "settings": "PC3M PTB-GFP, PNC prevalence imaging, 16 h; at 10 µM; stronger effect = lower value", "in_short": "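Read-out is percentage of cells bearing a perinucleolar compartment, from automated 20x imaging of fixed, Hoechst-stained PC3M PTB-GFP cells. Cells were seeded 4 h, then exposed 16 h to compound (23 nl of library stock) in duplicate plates.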", "values": [{"smiles": "CCN(CCO)c1nc(SC)nc2c1sc1nc(-c3ccco3)c3c(c12)CCC3", "activity change (PNC), negative = inhibition": "inconclusive: -44.7%"}, {"smiles": "Cc1c(N=C2NC(=O)C(CC(=O)Nc3ccc(Cl)cc3)S2)c(=O)n(-c2ccccc2)n1C", "note": "(stereo not given)", "activity change (PNC), negative = inhibition": "inconclusive: -41.5%"}, {"smiles": "COc1ccc(OC)c(-c2csc(NC(=O)CSc3ccc([N+](=O)[O-])cc3)n2)c1", "activity change (PNC), negative = inhibition": "inconclusive: -34.8%"}, {"smiles": "O=C(NCc1ccco1)c1ccc2ccccc2c1", "activity change (PNC), negative = inhibition": "inconclusive: -37.2%"}, {"smiles": "Cc1ccc(OCC(=O)N/N=C/c2cc([N+](=O)[O-])ccc2N2CCCCC2)cc1", "activity change (PNC), negative = inhibition": "inconclusive: -34.4%"}, {"smiles": "CC(C)Oc1ccc(C(CC(=O)NCc2ccco2)c2ccccc2)cc1", "note": "(stereo not given)", "activity change (PNC), negative = inhibition": "inactive: 37.7%"}, {"smiles": "O=C(CSCc1ccc(Cl)cc1)Nc1ccc(S(=O)(=O)N2CCOCC2)cc1", "activity change (PNC), negative = inhibition": "inconclusive: -49.5%"}, {"smiles": "Cc1cc(NC(=O)c2cnn3cccnc23)n(-c2ccccc2)n1", "activity change (PNC), negative = inhibition": "inconclusive: -63.1%"}, {"smiles": "Cc1ccc(Cn2c(-n3nc(C)cc3C)nc3c2c(=O)[nH]c(=O)n3C)cc1", "activity change (PNC), negative = inhibition": "inactive: -18.8%"}, {"smiles": "CCOC(=O)c1ccc(NC(=O)C(=O)NCC2CCCO2)cc1", "note": "(stereo not given)", "activity change (PNC), negative = inhibition": "inconclusive: -41.3%"}, {"smiles": "NC(=O)C1CCN(C(=O)c2cc3n(n2)C(C(F)(F)F)CC(c2ccco2)N3)CC1", "note": "(stereo not given)", "activity change (PNC), negative = inhibition": "inactive: -3.93%"}, {"smiles": "O=C(CSc1nn(-c2ccccc2)c(=S)s1)Nn1cnnc1", "activity change (PNC), negative = inhibition": "inconclusive: -60.2%"}, {"smiles": "CN(c1ccc(C(=O)N2CCc3ccccc3C2)cc1)S(C)(=O)=O", "activity change (PNC), negative = inhibition": "active: -100%"}, {"smiles": "O=S(=O)(NCc1ccco1)c1cccc2cccnc12", "activity change (PNC), negative = inhibition": "active: -100%"}, {"smiles": "CC1CCCC(C)N1C(=O)CSc1nnnn1Cc1ccccc1", "note": "(stereo not given)", "activity change (PNC), negative = inhibition": "inactive: 31.5%"}, {"smiles": "Cc1ccc(Nc2ncnc3sc(C)c(C)c23)cc1C", "activity change (PNC), negative = inhibition": "inconclusive: -49.3%"}, {"smiles": "O=C(Oc1ccccc1)c1c(Cl)cccc1P(=O)(O)O", "activity change (PNC), negative = inhibition": "inconclusive: -61.5%"}, {"smiles": "Cc1ccc(-c2nc3ccccc3[nH]2)cc1NC(=O)c1ccco1", "activity change (PNC), negative = inhibition": "inconclusive: -36.4%"}, {"smiles": "COc1ccc(OCc2nnc(SCC(=O)NCc3ccco3)o2)cc1", "activity change (PNC), negative = inhibition": "inconclusive: -35.9%"}, {"smiles": "CC(NC(=O)COC(=O)CC(c1ccccc1)c1ccccc1)c1ccccc1", "note": "(stereo not given)", "activity change (PNC), negative = inhibition": "inactive: 32.2%"}, {"smiles": "CCOc1ccc(S(=O)(=O)Nc2ccccc2C(=O)Nc2ccccc2N2CCOCC2)cc1", "activity change (PNC), negative = inhibition": "inconclusive: -66.7%"}, {"smiles": "CN(C)c1ccc(/C=C/C(=O)c2ccccc2)cc1[N+](=O)[O-]", "activity change (PNC), negative = inhibition": "inactive: -28%"}, {"smiles": "Cc1ccc(S(=O)(=O)N2CCC(C(=O)N[C@@H](C)C(=O)NCC3CCCO3)CC2)cc1", "note": "(stereo not given in full)", "activity change (PNC), negative = inhibition": "inconclusive: -43%"}, {"smiles": "COc1ccc(NS(=O)(=O)c2cccc3cccnc23)cc1", "activity change (PNC), negative = inhibition": "inactive: -28.5%"}, {"smiles": "O=C(CSc1nnc(NC2CCCCC2)s1)NC1CCS(=O)(=O)C1", "note": "(stereo not given)", "activity change (PNC), negative = inhibition": "inconclusive: -73.5%"}, {"smiles": "Cn1ncc(Br)c1C(=O)N/N=C/c1ccc(OS(=O)(=O)c2ccccc2)cc1", "activity change (PNC), negative = inhibition": "active: -80.5%"}, {"smiles": "CC1=C(C(=O)Nc2ccccc2)C(c2cccs2)n2nnnc2N1", "note": "(stereo not given)", "activity change (PNC), negative = inhibition": "inconclusive: -56.8%"}, {"smiles": "OC(CNCC1CCCO1)Cn1c2ccc(Cl)cc2c2cc(Cl)ccc21", "note": "(stereo not given)", "activity change (PNC), negative = inhibition": "inactive: 41.7%"}, {"smiles": "CCOc1ccc2nc(NC(=O)Cn3cnc4c3c(=O)n(C)c(=O)n4C)sc2c1", "activity change (PNC), negative = inhibition": "inconclusive: -45.6%"}, {"smiles": "COC(=O)C1=CN(C)C=C(C(=O)OC)C1c1ccccc1Cl", "activity change (PNC), negative = inhibition": "active: -109%"}, {"smiles": "CC(Sc1nc(-c2ccccc2)cs1)C(=O)Nc1ccc(Cl)cn1", "note": "(stereo not given)", "activity change (PNC), negative = inhibition": "inactive: -20.9%"}, {"smiles": "Cc1cccc(C(=O)OCC(=O)Nc2nccs2)c1", "activity change (PNC), negative = inhibition": "inconclusive: -32.7%"}, {"smiles": "Cc1ccc[n+](CC(=O)Nc2ccc([N+](=O)[O-])cc2Cl)c1", "activity change (PNC), negative = inhibition": "inconclusive: -31.4%"}, {"smiles": "c1ccc2oc(-c3ccc4nc[nH]c4c3)nc2c1", "activity change (PNC), negative = inhibition": "inconclusive: -30.2%"}, {"smiles": "COc1ccc(CN2CC(=O)N(c3ccc(C)cc3)C2=S)cc1OC", "activity change (PNC), negative = inhibition": "inconclusive: -34.1%"}, {"smiles": "O=C(Cn1nc(-c2ccccc2)c2ccccc2c1=O)Nc1cccnc1", "activity change (PNC), negative = inhibition": "inconclusive: -33.1%"}, {"smiles": "COc1ccccc1C(=O)Nc1cccc(N(C)S(C)(=O)=O)c1", "activity change (PNC), negative = inhibition": "active: -100%"}, {"smiles": "Cc1cc2c(=O)[nH]c(Cc3ccccc3)nc2s1", "activity change (PNC), negative = inhibition": "inconclusive: -53.4%"}, {"smiles": "COc1cc(C)c(C(C)C)cc1S(=O)(=O)n1ccnc1", "activity change (PNC), negative = inhibition": "inconclusive: -48.4%"}, {"smiles": "COc1ccc(Nc2cc(C)nc(N3CCOCC3)n2)cc1", "activity change (PNC), negative = inhibition": "inconclusive: -43.7%"}, {"smiles": "COc1cc(OC)cc(C(=O)N[C@H](C(=O)OCC(=O)Nc2cccc(F)c2)C(C)C)c1", "activity change (PNC), negative = inhibition": "inactive: 109%"}, {"smiles": "CCN(c1ccccc1)S(=O)(=O)c1ccc(Cl)c(C(=O)NCCc2ccc(OC)cc2)c1", "activity change (PNC), negative = inhibition": "inactive: 29.9%"}, {"smiles": "Cc1ccc2c(c1)-c1ccccc1S(=O)(=O)N2", "activity change (PNC), negative = inhibition": "inconclusive: -56.1%"}, {"smiles": "O=C(O)/C(=C\\c1ccc(Br)cc1)c1ccc(S(=O)(=O)N2CCCCC2)s1", "activity change (PNC), negative = inhibition": "inconclusive: -42.3%"}, {"smiles": "COc1ccc(-n2c(SCC(=O)NCc3ccco3)nc3c([nH]c4ccccc43)c2=O)cc1", "activity change (PNC), negative = inhibition": "active: -108%"}]}]}
